For at least one compound, name, drawing or mass did not settle the structure.
Legend:
Assay type in all cases: cell-based
[1] = system: EVPOME tissue-engineered constructs (primary human oral keratinocytes); experiment: Quantitative histology scoring (H&E) of rapamycin-treated tissue-engineered constructs; details: rapa+control; poorly-growing batches
From the text: A section was sliced across the construct, near the edge, fixed in 10% phosphate buffered formalin, and embedded in paraffin for hematoxylin and eosin (H&E) histology and immunohistochemistry (IHC). All the engineered tissues were sectioned for histological assessment and some for IHC imaging. Some engineered tissues were randomly selected for punch biopsies for WST-1 assay. The remaining intact constructs were non-invasively assessed with label-free optical imaging. For each construct, three sites were randomly selected for optical imaging. A tissue-engineered construct consists of three layers: keratin, living cellular, and dermal equivalent layer. Thus, for each site, one to two optical images were measured at lower and upper depths for the proliferating basal layer and the differentiating cellular layer respectively.
10 batches tissue-engineered constructs manufactured with cells from 10 independent patients were studied: 5 batches for the rapamycin experiment and 5 batches for the thermal-stress experiment. […]
All H&E histology slides were assessed by a panel of three blinded expert readers. […] The readers individually assigned a score to each EVPOME histology slide, while blinded to the construct condition and to the other readers' scores.
Quantitative histology scoring was performed to assess tissue morphology. […]

[2] = system: EVPOME tissue-engineered constructs (primary human oral keratinocytes); experiment: WST-1 cellular viability assay of punch biopsied engineered tissues
[3] = system: EVPOME tissue-engineered constructs (primary human oral keratinocytes); experiment: Label-free optical redox ratio metrics of tissue-engineered constructs
[4] = molecular target: EVPOME tissue-engineered constructs (primary human oral keratinocytes); experiment: Ki-67 immunohistochemistry imaging of engineered tissues; details: the other constructs (control+rapa, rapa+rapa, control+control); poorly-growing batch
[5] = rapamycin treatment experimental conditions

CO[C@H]1C[C@@H]2CC[C@@H](C)[C@@](O)(O2)C(=O)C(=O)N2CCCC[C@H]2C(=O)O[C@H]([C@H](C)C[C@@H]2CC[C@@H](O)[C@H](OC)C2)CC(=O)[C@H](C)/C=C(\C)[C@@H](O)[C@@H](OC)C(=O)[C@H](C)C[C@H](C)/C=C/C=C/C=C/1C [Rapamycin]
histology scores compared to control+control constructs [1]: high histology scores | WST-1 readings compared to control+control constructs ([2]; rapa+control, poorly-growing batches): high WST-1 readings | WST-1 readings (correlation plot by experimental condition) [2, 5]: high WST-1 readings | redox ratio map vs control+control construct ([3]; rapa+control construct, en-face redox ratio maps): lower redox ratio | redox ratios compared to control+control constructs ([3]; rapa+control, poorly-growing batches, redox ratio = [FAD]/([NAD(P)H]+[FAD])): low redox ratios | redox ratios (correlation plot by experimental condition) [3, 5]: low redox ratios | Ki-67 expression (dark brown stained nuclei) [4]: few dark brown nuclei

From patent US10281451B2, “Method of determining the viability of at least one cell” (The Regents of the University of Michigan, priority 2012, dated 2019)
